Data from article PMC8881611, “A mechanism of origin licensing control through autoinhibition of S. cerevisiae ORC·DNA·Cdc6” (Nature Communications, 2022).
Results are given in words; binding and its absence hold for the method and conditions named. Some results given as binding are weak or reduced against the parent protein; the word gives no strength.

T1: S. cerevisiae Orc1 (S. cerevisiae, UniProt P54784 1-914)
T1 construct: Orc1, S. cerevisiae, wild type; Stood in the assays as a subunit of ScORC·DNA(·Cdc6); also called ScOrc1; source: High5 insect cells, co-expressed and purified as a subunit of ScORC; not shown: His6, N-terminal, cleaved
T1 sequence (looked up): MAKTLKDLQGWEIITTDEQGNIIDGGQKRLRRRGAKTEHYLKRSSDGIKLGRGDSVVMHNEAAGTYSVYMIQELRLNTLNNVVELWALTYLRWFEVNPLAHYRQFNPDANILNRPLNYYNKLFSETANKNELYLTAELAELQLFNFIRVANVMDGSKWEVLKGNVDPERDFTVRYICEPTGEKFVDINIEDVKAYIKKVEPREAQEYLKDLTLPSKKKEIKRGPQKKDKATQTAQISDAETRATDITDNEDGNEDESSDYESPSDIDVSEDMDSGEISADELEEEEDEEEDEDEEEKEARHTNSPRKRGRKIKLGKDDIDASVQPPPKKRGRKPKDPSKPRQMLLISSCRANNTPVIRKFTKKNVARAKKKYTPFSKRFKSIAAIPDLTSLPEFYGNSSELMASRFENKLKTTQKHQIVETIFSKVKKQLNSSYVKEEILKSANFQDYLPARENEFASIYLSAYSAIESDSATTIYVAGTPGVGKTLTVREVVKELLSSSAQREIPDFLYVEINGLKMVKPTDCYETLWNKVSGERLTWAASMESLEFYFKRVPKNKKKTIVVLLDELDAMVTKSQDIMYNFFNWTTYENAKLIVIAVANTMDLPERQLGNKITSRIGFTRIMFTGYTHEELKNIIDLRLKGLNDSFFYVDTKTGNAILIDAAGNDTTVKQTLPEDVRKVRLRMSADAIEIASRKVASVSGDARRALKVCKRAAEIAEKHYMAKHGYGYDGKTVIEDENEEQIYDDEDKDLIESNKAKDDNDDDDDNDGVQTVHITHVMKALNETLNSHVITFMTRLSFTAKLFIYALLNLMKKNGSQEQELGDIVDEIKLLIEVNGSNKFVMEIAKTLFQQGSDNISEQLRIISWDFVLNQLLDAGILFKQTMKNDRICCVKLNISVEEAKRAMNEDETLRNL

T2: S. cerevisiae Orc2 (S. cerevisiae), P32833
T2 chain: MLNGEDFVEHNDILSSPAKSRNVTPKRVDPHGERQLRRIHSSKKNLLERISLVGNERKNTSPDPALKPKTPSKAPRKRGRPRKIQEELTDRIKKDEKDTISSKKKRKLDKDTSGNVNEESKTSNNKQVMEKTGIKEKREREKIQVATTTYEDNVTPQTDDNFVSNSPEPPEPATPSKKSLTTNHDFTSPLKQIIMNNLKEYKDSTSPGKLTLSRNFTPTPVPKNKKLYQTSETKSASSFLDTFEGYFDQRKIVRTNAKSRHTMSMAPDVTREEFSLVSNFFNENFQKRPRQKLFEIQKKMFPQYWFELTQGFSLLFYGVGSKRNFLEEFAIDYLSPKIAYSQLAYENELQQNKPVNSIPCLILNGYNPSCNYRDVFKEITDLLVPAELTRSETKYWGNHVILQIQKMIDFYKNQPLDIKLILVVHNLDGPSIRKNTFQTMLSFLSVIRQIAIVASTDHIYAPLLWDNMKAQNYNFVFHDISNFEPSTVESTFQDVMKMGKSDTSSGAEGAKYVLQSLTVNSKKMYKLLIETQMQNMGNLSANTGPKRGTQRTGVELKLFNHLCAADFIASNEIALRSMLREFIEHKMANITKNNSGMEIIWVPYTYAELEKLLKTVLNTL


Legend:
S. cerevisiae Orc1 = target: T1, S. cerevisiae Orc1; assay: cryo-EM structure; ScORC (2.5 uM), 84 bp ARS1 DNA (3 uM) and ScCdc6 (6.8 uM) reconstituted with 1 mM ATP, purified on Superose 6 in 25 mM HEPES-KOH pH 7.6, 250 mM potassium acetate, 10 mM magnesium acetate, 1 mM DTT, 0.2 mM ATP; not cross-linked; masked 3D classification; both purified
[1] = target: T2, S. cerevisiae Orc2 (S. cerevisiae), …; assay: as above; conditions: remark: other sources report otherwise

Binder	binding (S. cerevisiae Orc1)	binding [1]
S. cerevisiae Orc4 (protein, UniProt P54791 1-529) MTISEARLSPQVNLLPIKRHSNEEVEETAAILKKRTIDNEKCKDSDPGFGSLQRRLLQQLYGTLPTDEKIIFTYLQDCQQEIDRIIKQSIIQKESHSVILVGPRQSYKTYLLDYELSLLQQSYKEQFITIRLNGFIHSEQTAINGIATQLEQQLQKIHGSEEKIDDTSLETISSGSLTEVFEKILLLLDSTTKTRNEDSGEVDRESITKITVVFIFDEIDTFAGPVRQTLLYNLFDMVEHSRVPVCIFGCTTKLNILEYLEKRVKSRFSQRVIYMPQIQNLDDMVDAVRNLLTVRSEISPWVSQWNETLEKELSDPRSNLNRHIRMNFETFRSLPTLKNSIIPLVATSKNFGSLCTAIKSCSFLDIYNKNQLSNNLTGRLQSLSDLELAILISAARVALRAKDGSFNFNLAYAEYEKMIKAINSRIPTVAPTTNVGTGQSTFSIDNTIKLWLKKDVKNVWENLVQLDFFTEKSAVGLRDNATAAFYASNYQFQGTMIPFDLRSYQMQIILQELRRIIPKSNMYYSWTQL	binds	–
S. cerevisiae Cdc6 (ScCdc6), full length (natural protein, UniProt P09119 1-513, looked up, Cdc6, S. cerevisiae, wild type; also called co-loader; source: High5 insect cells, baculovirus, purified as ScORC (HisTrap, amylose, TEV cleavage, HisTrap, Superdex 200); not shown: His6, N-terminal, cleaved; MBP, N-terminal, cleaved) MSAIPITPTKRIRRNLFDDAPATPPRPLKRKKLQFTDVTPESSPEKLQFGSQSIFLRTKALLQKSSELVNLNSSDGALPARTAEYEQVMNFLAKAISEHRSDSLYITGPPGTGKTAQLDMIIRQKFQSLPLSLSTPRSKDVLRHTNPNLQNLSWFELPDGRLESVAVTSINCISLGEPSSIFQKIFDSFQDLNGPTLQIKNMQHLQKFLEPYHKKTTFVVVLDEMDRLLHANTSETQSVRTILELFLLAKLPTVSFVLIGMANSLDMKDRFLSRLNLDRGLLPQTIVFQPYTAEQMYEIVIQKMSSLPTIIFQPMAIKFAAKKCAGNTGDLRKLFDVLRGSIEIYELEKRFLLSPTRGSLNSAQVPLTPTTSPVKKSYPEPQGKIGLNYIAKVFSKFVNNNSTRTRIAKLNIQQKLILCTIIQSLKLNSDATIDESFDHYIKAITKTDTLAPLQRNEFLEICTILETCGLVSIKKTKCKGKTKRFVDKIDVDLDMREFYDEMTKISILKPFLH	–	binds
